These results are taken from paper PMC7819943, “Rice protein-binding microarrays: a tool to detect cis-acting elements near promoter regions in rice”.

The other results are listed elsewhere or left out.

The assay addresses T1, OsSMF1 (Oryza sativa, UniProt Q6ZLB0 1-436).
T1 sequence: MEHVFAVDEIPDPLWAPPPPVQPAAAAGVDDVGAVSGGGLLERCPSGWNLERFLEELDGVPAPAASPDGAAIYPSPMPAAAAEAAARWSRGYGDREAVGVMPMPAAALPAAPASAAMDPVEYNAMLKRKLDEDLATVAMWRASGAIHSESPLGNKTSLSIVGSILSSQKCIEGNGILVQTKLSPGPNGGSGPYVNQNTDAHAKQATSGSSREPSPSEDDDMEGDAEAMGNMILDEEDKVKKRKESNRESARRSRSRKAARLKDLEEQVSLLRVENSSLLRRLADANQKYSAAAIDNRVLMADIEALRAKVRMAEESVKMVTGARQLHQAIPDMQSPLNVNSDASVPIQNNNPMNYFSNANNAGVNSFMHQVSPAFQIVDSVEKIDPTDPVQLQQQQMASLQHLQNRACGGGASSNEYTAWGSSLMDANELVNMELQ
The assay can be described thus: protein-binding microarray (RPBM); PBS, 2% BSA, 51.3 ng/ul salmon testes DNA, 50 uM zinc acetate, 200 nM TF, 25 C, 1 h; high values mean tight binding. The following applies: protein: recombinant; tags: N-terminal polyhistidine and DsRed monomer fusion (pET32a); chain copies: 2; label: CyDye5-dUTP incorporated in the synthesized complementary strand; 3' TTTTT single-stranded linker to array surface; dsDNA, one strand shown. Put shortly:
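Binding signal is defined as the fluorescence intensity of each feature in arbitrary units, read on an Axon 4000B scanner. Transcription factors with N-terminal polyhistidine and DsRed fusions came from E. coli BL21-CodonPlus and were purified on Ni–NTA. They were incubated at 200 nM for 1 h at 25 °C on a custom Agilent array that had been made double-stranded with Cy5-dUTP, with 50 µM zinc acetate present, and the array was washed.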
For “TATGGCCAACTTTGCATTCTATCTGTATTGTATGTTCAGTCGGAGTCACCTAGTGCAG”, the binding signal was 25000 fluorescence intensity (a.u.).
The value for “ATCGGTGGTGGTGGTGGTGGTGGCCATGAGTCTCGTTTGACGGAGTCACCTAGTGCAG” was 4900 fluorescence intensity (a.u.); that for “AGTACTTCATTTAACCGAAAATATGAGGCGACCAACGTGACGGAGTCACCTAGTGCAG” was 28900 fluorescence intensity (a.u.); that for “GTAGTCGTAATGTCATCGTCATCGACATCGATGTGTTGCTCGGAGTCACCTAGTGCAG” was 4940 fluorescence intensity (a.u.).
Then “ACGGTCAGTCGCACACGTCCGAGGCCTATAAACCTAAACCCGGAGTCACCTAGTGCAG”, with 3890 fluorescence intensity (a.u.).
As to “TTAAATTTGAAACAGTTTGACTTTGACCAGTCAAAGTCTTCGGAGTCACCTAGTGCAG”, the binding signal was 8060 fluorescence intensity (a.u.).
The value for “ACCTCCATCTCCATGGCCCATGGCATCACCGCGTCGGCGCCGGAGTCACCTAGTGCAG” was 3200 fluorescence intensity (a.u.).
The value for “ACTATTTCTCCAGATAGTAGTAGTAACTCTTACGTCATGGCGGAGTCACCTAGTGCAG” was 4910 fluorescence intensity (a.u.).
“GAAAGAAAGAAGGTATTGGCGTGGACACCCTGACATGTGGCGGAGTCACCTAGTGCAG”: the binding signal was 3740 fluorescence intensity (a.u.).
The value for “TTGTGTGTGCACGTGATGTGAGTGTCACGAGGTCAAATCCCGGAGTCACCTAGTGCAG” was 3700 fluorescence intensity (a.u.); that for “CCTGTGCGTGGTCGGGTTAATTTGTCAGTCTGTCACTTACCGGAGTCACCTAGTGCAG” was 3200 fluorescence intensity (a.u.); that for “CGGCGGCGGCGTCAGCGTCCGCGACGTGCCGGTGGTGCTCCGGAGTCACCTAGTGCAG” was 3640 fluorescence intensity (a.u.).
Then “ACGAAGATCAGATCAGAAAATATCTTATCAGGTCTCGTCTCGGAGTCACCTAGTGCAG”, with 24100 fluorescence intensity (a.u.); and “CCCCTCTCTAGTGACCTCAATCCTAGACGGTGGCATCCGGCGGAGTCACCTAGTGCAG”, with 3920 fluorescence intensity (a.u.); and “CCCCGGACTCCCACCTCGACCGCGTGGCCCTCTCCCTCGCCGGAGTCACCTAGTGCAG”, with 4440 fluorescence intensity (a.u.).
Then “TCTTATTTTCTTGGATAATTCAACTGTGACGATGACCTCTCGGAGTCACCTAGTGCAG”, with 3540 fluorescence intensity (a.u.).
Regarding “CACTTCAGCCTTCAAGCCACACTAGCATTGACAGCGTCAGCGGAGTCACCTAGTGCAG”, the binding signal was 4350 fluorescence intensity (a.u.).
The value for “GCGCAGCTGGCGTGGCAGTGCTGTCCTGCCACGCCATCATCGGAGTCACCTAGTGCAG” was 16200 fluorescence intensity (a.u.).
Consider “TATCTGATGAGAGCAGATTGCCACACATCACAGCATGCAGCGGAGTCACCTAGTGCAG”, for which the binding signal was 3640 fluorescence intensity (a.u.).
The value for “TAAAGTGAATCACGCCCACGCGTGATCGTCTTGTCACATCCGGAGTCACCTAGTGCAG” was 5380 fluorescence intensity (a.u.); that for “ACCCTCTAAAATTCTCGCTCGCCCTCCTCCTTAATCCCGGCGGAGTCACCTAGTGCAG” was 3910 fluorescence intensity (a.u.).
With “CTCGCGTCGCGTCCTGCTGACTCCTCTCCTCCTCCGCCAGCGGAGTCACCTAGTGCAG”, the binding signal was 9610 fluorescence intensity (a.u.).
The value for “TTCCTCTTCTCTTCTGACCCAAGAAGAGCGGGCCTGTTTGCGGAGTCACCTAGTGCAG” was 3540 fluorescence intensity (a.u.); that for “GATCGCGGGGCGTGTTAATTCAAATGACGTTAGTCCTGAACGGAGTCACCTAGTGCAG” was 3480 fluorescence intensity (a.u.); that for “AACGGAGATAGCTAGCCGTCTCGTCAAAGCTGTGTCATCACGGAGTCACCTAGTGCAG” was 8540 fluorescence intensity (a.u.).
With “TACATTTTGGGACGGAGGTAGTATAGCTTAACCGATCATCCGGAGTCACCTAGTGCAG”, the binding signal is 35000 fluorescence intensity (a.u.).
As to “CATTTGGTGAGGCTTCGGGAGGTCACCAGAATTGTTCCTGCGGAGTCACCTAGTGCAG”, the binding signal is 3260 fluorescence intensity (a.u.).
Take “TGCAAAAGTAAAATCCAACGTGGCACGCCCCAGCGTGCGACGGAGTCACCTAGTGCAG”: the binding signal is 10100 fluorescence intensity (a.u.).
The value for “TCTGCAGTGCACACGAGTCAGAGTCATGCTCTTGTCTTGCCGGAGTCACCTAGTGCAG” was 3500 fluorescence intensity (a.u.).
The value for “CAGTTTTAAACGGGTTATCTCTTGTAATATGTATACAGCCCGGAGTCACCTAGTGCAG” was 3240 fluorescence intensity (a.u.); that for “GGTCTTCATCTCTGCACGAATCGTAAGGTAATCATCAGAGCGGAGTCACCTAGTGCAG” was 3240 fluorescence intensity (a.u.); that for “TAACTGGTTCCACCTGTCATACACACACTGTGTCTTAGAGCGGAGTCACCTAGTGCAG” was 3270 fluorescence intensity (a.u.).
For the sequence “CCTAATTAATCCATGATTAGTCATAAGTGTTACAATAATCCGGAGTCACCTAGTGCAG”, the binding signal was 25600 fluorescence intensity (a.u.).
The value for “GGGGCGGATCTACAGTGTTAGCATCGGTGTCAGATGACACCGGAGTCACCTAGTGCAG” was 3460 fluorescence intensity (a.u.).
For the sequence “AAGATATATTTTGCAGTCCGTGTCATTGTCCAAAACGTCACGGAGTCACCTAGTGCAG”, the binding signal was 4260 fluorescence intensity (a.u.).
In the case of “GTTTAGACGGGTTGGCGAAATCCACACCGTCCGTTAGAGACGGAGTCACCTAGTGCAG”, the binding signal is 30800 fluorescence intensity (a.u.).
Then “CTCTCAGGATTTCTGTGAGGACCTGAGTCAGAATTGATACCGGAGTCACCTAGTGCAG”, with 3770 fluorescence intensity (a.u.); and “CCCCGTGCACCAACGGGCGCAGAGCACACAGACGCGAACTCGGAGTCACCTAGTGCAG”, with 36000 fluorescence intensity (a.u.).
The value for “GAATCTGACATGGTTACATTGCGGCACTGCTGTCAATGGACGGAGTCACCTAGTGCAG” was 3770 fluorescence intensity (a.u.); that for “ATGCAACTAACCCTTATCAGCATCATGTGCCTTTATCTCTCGGAGTCACCTAGTGCAG” was 3580 fluorescence intensity (a.u.).
As to “TGAAAGCCATTAAGCATATGTCATGTCAAGTTGATCTATACGGAGTCACCTAGTGCAG”, the binding signal is 3160 fluorescence intensity (a.u.).
The value for “GCTATATTAAACATTTGCTAATGACAAATTAATTAGCTTACGGAGTCACCTAGTGCAG” was 14700 fluorescence intensity (a.u.).
